According to publication PMC4366279 (PLoS ONE, 2015):
These are yes or no findings as the source states them, for the method shown. Binding seen in cells or lysates may run through a third protein. Some entries that bind do so weakly or less than the wild type.

Key:
Test in all cases: pull-down; His6-TbREL1 TNT mixture mixed with an equal volume of untagged KREPA2 TNT mixture, captured on magnetic His-tag isolation beads (Dynabeads); binding buffer 50 mM NaPO4 pH 8.0, 300 mM NaCl, 0.01% Tween 20; 20-30 min at 4°C; three washes; [35S]-methionine-labelled proteins on 10% SDS-PAGE, PhosphorImager; KREPA2-only control for background
[1] = target: T1, TbREL1 K424A (Trypanosoma brucei) (UniProt P86926)
T1 sequence (chain, [35S]-methionine labelled): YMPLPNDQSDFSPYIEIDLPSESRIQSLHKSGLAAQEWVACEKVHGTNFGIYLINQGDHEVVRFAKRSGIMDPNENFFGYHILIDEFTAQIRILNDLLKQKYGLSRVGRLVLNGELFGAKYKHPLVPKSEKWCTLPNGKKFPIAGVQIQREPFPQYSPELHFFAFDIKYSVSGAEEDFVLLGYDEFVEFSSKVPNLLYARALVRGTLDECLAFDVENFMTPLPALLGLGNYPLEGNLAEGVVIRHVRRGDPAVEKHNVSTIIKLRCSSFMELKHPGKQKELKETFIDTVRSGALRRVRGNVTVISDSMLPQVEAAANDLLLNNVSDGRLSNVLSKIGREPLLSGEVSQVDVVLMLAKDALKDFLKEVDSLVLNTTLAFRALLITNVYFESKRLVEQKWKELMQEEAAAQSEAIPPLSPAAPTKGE

[2] = target: T2, TbREL1 K166A (Trypanosoma brucei) (UniProt P86926)
T2 sequence (chain, [35S]-methionine labelled): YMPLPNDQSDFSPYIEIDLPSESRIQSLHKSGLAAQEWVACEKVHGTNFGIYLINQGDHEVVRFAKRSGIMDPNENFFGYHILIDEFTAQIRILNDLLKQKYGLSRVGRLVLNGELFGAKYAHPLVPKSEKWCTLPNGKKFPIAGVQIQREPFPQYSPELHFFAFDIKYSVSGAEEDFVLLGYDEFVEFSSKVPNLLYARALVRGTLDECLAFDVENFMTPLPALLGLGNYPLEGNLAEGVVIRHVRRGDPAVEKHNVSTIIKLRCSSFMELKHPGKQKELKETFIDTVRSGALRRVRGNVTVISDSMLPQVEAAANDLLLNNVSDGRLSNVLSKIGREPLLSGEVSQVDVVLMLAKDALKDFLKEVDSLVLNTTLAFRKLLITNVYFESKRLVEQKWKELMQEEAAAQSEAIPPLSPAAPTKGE

[3] = target: T3, TbREL1 E455A (Trypanosoma brucei) (UniProt P86926)
T3 sequence (chain, [35S]-methionine labelled): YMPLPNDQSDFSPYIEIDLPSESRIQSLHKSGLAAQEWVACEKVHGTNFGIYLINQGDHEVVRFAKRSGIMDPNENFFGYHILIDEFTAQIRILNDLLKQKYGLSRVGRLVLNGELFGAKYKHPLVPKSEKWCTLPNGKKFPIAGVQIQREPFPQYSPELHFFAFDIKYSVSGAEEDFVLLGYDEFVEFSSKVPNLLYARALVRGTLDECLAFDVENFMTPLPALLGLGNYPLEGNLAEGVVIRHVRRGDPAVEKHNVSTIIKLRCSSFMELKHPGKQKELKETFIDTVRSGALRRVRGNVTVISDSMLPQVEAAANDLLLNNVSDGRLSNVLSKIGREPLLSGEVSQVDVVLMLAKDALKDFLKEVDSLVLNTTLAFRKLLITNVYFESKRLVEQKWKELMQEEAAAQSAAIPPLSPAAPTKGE

[4] = target: T4, TbREL1 E410A (Trypanosoma brucei) (UniProt P86926)
T4 sequence (chain, [35S]-methionine labelled): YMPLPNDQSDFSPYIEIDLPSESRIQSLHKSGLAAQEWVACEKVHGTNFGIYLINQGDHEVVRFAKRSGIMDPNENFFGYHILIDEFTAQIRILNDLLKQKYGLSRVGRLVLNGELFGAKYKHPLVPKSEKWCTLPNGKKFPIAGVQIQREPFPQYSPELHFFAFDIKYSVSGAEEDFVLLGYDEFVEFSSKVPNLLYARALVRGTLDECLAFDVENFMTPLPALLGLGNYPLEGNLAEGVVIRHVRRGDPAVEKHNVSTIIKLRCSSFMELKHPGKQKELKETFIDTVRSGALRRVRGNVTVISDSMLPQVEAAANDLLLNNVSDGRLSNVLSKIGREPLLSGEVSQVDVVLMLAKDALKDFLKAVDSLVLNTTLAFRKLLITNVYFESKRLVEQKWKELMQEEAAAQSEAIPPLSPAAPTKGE

Measured: binding

B1: KREPA2 (natural protein)
chain: MYRRFFRSAAVKHLGTTSAQCLMRATKYPCGAMCRNASSCHPQTLGYQQRFQSTTDKKFHCSVCKKPFRLEMAAKLHLQQAHGGDGSVEAGPGPGVEASSVNVVSTPVPSPISPVERTFVDEEERRPRRMRPTPKPLHQPDRDIPAAAMEEMLGVWDKIGLNRLEGNFVHSTMVMKVFAAPPDVSEIPLYEHVAPEGENPFDSLDHMTTGTVDATYVGHDAFAEVDLVDPFVAAPDQTLNPFRAGKVRNPFTRISPTQREVVKPLQPPQPKEEPLKAPVTPFGQLPMFGQTREPSASFAAAAVSVQAAANPNEVSSPFAAAVSSSPFVGQVASPFAPAQDVAGSPFEASPCAASSPFVTAGGQETSPFAAPSTPASFGQGSLFPPMGTGAPGFTAITETEQRQQELEHGCPTCGKKFSTFEGAAMHSKSKHGIVLESKKVKDRLNRKGVPDLPAYVPSPVDLSSTSPFGTRSAIGASWAETELIPHAQCVSNITIVGRVLDVSQASENVSHVTVFVEGERSGEEETLTLCCFGEVSQKIRGTLKRNATIFASGTLRLHPVYEASNNKYYVSPVVHVSMPTGTLAVIT
modifications: [35S]-methionine labelled
notes: KREPA2 of T. brucei, the KREPA2 open reading frame, expressed untagged (63 kDa); source: in vitro translated (TNT reticulocyte lysate coupled transcription and translation system, Promega)
binds: all assays above
